PubChem BioAssay AID1053208, Peter MacCallum Cancer Centre – 2014
Aim: 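Genes whose silencing cuts survival of bone tumour cells only with doxorubicin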 (primary screen). System: mouse osteosarcoma cells, early-passage culture from an engineered mouse model of fibroblastic bone tumour. Knock-down reagent: siRNA pool against mouse genes, 40 nM. Duration: about 120 h (48 h before drug, then 72 h with drug). Challenge: doxorubicin 100 nM for 72 h, roughly 30-40% inhibitory dose. Measured: 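Viability read as ATP luminescence after 72 h of 100 nM doxorubicin or none, duplicate wells averaged, scaled to non-targeting siRNA, then expressed as robust z-scores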. Scale: viability z-score with doxorubicin and doxorubicin viability vs non-targeting: higher = more viable cells under doxorubicin; viability z-score without drug: higher = more viable cells with knock-down alone; z-score of drug to no-drug ratio: higher = less drug sensitisation by knock-down. Active means: 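a pool counts as active when its viability z-score with doxorubicin is -2 or below and its z-score without drug lies between -2 and 2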.
Here is one part, drawn at random, of about 17,000 deposited reagents. Of all reagents, 788 (4.7%) are marked active. 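Calls rest on z-score classes alone; an extra cut-off of viability at most 70% of control was not applied to them.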 No sequences are given here.

| gene knocked down | combined z-score class | viability z-score with doxorubicin | viability z-score without drug | z-score of drug to no-drug ratio | doxorubicin viability vs non-targeting | Outcome |
| --- | --- | --- | --- | --- | --- | --- |
| Imp4 (IMP4, U3 small nucleolar ribonucleoprotein) | no change with or without drug | -0.67 | 1.69 | -1.57 | 0.88 | inactive |
| Rbm5 (RNA binding motif protein 5) | no change with or without drug | 0.45 | 0.84 | 0 | 0.98 | inactive |
| Or4k48 (olfactory receptor family 4 subfamily K member 48) | no change with or without drug | -0.56 | -1.18 | 0.34 | 0.89 | inactive |
| Vrk1 (vaccinia related kinase 1) | low cell count with doxorubicin only | -2.47 | 0.67 | -2.81 | 0.72 | active |
| Rel (Rel proto-oncogene, NFKB subunit) | no change with or without drug | 0.67 | 0.67 | 0.34 | 1 | inactive |
| Dlx4 (distal-less homeobox 4) | no change with or without drug | -1.12 | -1.52 | 0 | 0.84 | inactive |
| Snai1 (snail family zinc finger 1) | no change with or without drug | -0.79 | -0.51 | -0.34 | 0.87 | inactive |
| Pcdhb15 (protocadherin beta 15) | low cell count with doxorubicin only | -2.02 | -1.35 | -1.24 | 0.76 | active |
| Mrtfa (myocardin related transcription factor A) | no change with or without drug | -1.35 | -1.18 | -0.56 | 0.82 | inactive |
| Zcchc17 (zinc finger, CCHC domain containing 17) | no change with or without drug | 1.12 | 0.17 | 1.12 | 1.04 | inactive |
| Tubgcp5 (tubulin, gamma complex component 5) | no change with or without drug | -1.57 | -1.52 | -0.56 | 0.8 | inactive |
| Dock5 (dedicator of cytokinesis 5) | no change with or without drug | -0.67 | 1.01 | -1.24 | 0.88 | inactive |
| Phf5a (PHD finger protein 5A) | low cell count with and without drug | -6.74 | -3.71 | -5.73 | 0.34 | inactive |
| Mxra8 (matrix-remodelling associated 8) | high cell count without drug only | 0.67 | 2.7 | -0.9 | 1 | inactive |
| Ripk1 (receptor (TNFRSF)-interacting serine-threonine kinase 1) | high cell count without drug only | -1.57 | 2.19 | -2.7 | 0.8 | inactive |
| Tmem33 (transmembrane protein 33) | no change with or without drug | 1.91 | 1.18 | 1.24 | 1.11 | inactive |
| Scmh1 (Scm polycomb group homolog 1) | no change with or without drug | -0.45 | -0.84 | 0.22 | 0.9 | inactive |
| Lrrc4b (leucine rich repeat containing 4B) | no change with or without drug | 0.22 | -0.84 | 1.01 | 0.96 | inactive |
| Procr (protein C receptor, endothelial) | no change with or without drug | 0.67 | -0.51 | 1.24 | 1 | inactive |
| Or6c215 (olfactory receptor family 6 subfamily C member 215) | no change with or without drug | -0.45 | -0.84 | 0.22 | 0.9 | inactive |
| Or8k38 (olfactory receptor family 8 subfamily K member 38) | no change with or without drug | 0.56 | -0.51 | 1.12 | 0.99 | inactive |
| Hpdl (4-hydroxyphenylpyruvate dioxygenase-like) | no change with or without drug | -1.8 | -0.84 | -1.24 | 0.78 | inactive |

Limited to “combined z-score class” (4 entries from above):
Mxra8 (matrix-remodelling associated 8): high cell count without drug only
Ripk1 (receptor (TNFRSF)-interacting serine-threonine kinase 1): high cell count without drug only
Tmem33 (transmembrane protein 33): no change with or without drug
Scmh1 (Scm polycomb group homolog 1): no change with or without drug

Further entries follow:
| gene knocked down | combined z-score class | viability z-score with doxorubicin | viability z-score without drug | z-score of drug to no-drug ratio | doxorubicin viability vs non-targeting | Outcome |
| --- | --- | --- | --- | --- | --- | --- |
| Cd200r3 (CD200 receptor 3) | no change with or without drug | 1.8 | 0.17 | 1.91 | 1.1 | inactive |
| Or52p1 (olfactory receptor family 52 subfamily P member 1) | high cell count without drug only | 1.57 | 2.19 | 0.22 | 1.08 | inactive |
| Hebp2 (heme binding protein 2) | no change with or without drug | 1.8 | 0.67 | 1.46 | 1.1 | inactive |
| M1ap (meiosis 1 associated protein) | no change with or without drug | -1.12 | -0.51 | -0.79 | 0.84 | inactive |
| Rnf25 (ring finger protein 25) | no change with or without drug | -1.12 | -0.17 | -1.01 | 0.84 | inactive |
| Tram2 (translocating chain-associating membrane protein 2) | no change with or without drug | -1.12 | 1.18 | -1.8 | 0.84 | inactive |
| Or51b6b (olfactory receptor family 51 subfamily B member 6B) | no change with or without drug | -0.56 | -0.51 | -0.11 | 0.89 | inactive |
| Toporsl (topoisomerase I binding, arginine/serine-rich like) | high cell count with doxorubicin only | 2.36 | 1.52 | 1.46 | 1.15 | inactive |
| Ndufb11b (NADH:ubiquinone oxidoreductase subunit B11B) | no change with or without drug | 1.01 | 0.51 | 0.79 | 1.03 | inactive |
| Ceacam13 (CEA cell adhesion molecule 13) | no change with or without drug | -1.46 | -1.18 | -0.67 | 0.81 | inactive |
| Pofut2 (protein O-fucosyltransferase 2) | no change with or without drug | 1.12 | -0.84 | 2.02 | 1.04 | inactive |
| Accs (1-aminocyclopropane-1-carboxylate synthase (inactive)) | no change with or without drug | 1.12 | -0.84 | 2.02 | 1.04 | inactive |
| Slc61a1 | no change with or without drug | 0.56 | 1.85 | -0.56 | 0.99 | inactive |
| Fancl (Fanconi anemia, complementation group L) | no change with or without drug | -0.79 | -0.84 | -0.11 | 0.87 | inactive |
| Dnajc6 (DnaJ heat shock protein family (Hsp40) member C6) | no change with or without drug | -0.45 | 0.51 | -0.67 | 0.9 | inactive |
| Pus7l (pseudouridylate synthase 7-like) | no change with or without drug | 0.67 | -0.51 | 1.24 | 1 | inactive |
| Mmrn2 (multimerin 2) | low cell count with doxorubicin only | -2.02 | -1.69 | -1.01 | 0.76 | active |
| Tbc1d1 (TBC1 domain family, member 1) | no change with or without drug | -0.45 | 0.84 | -0.9 | 0.9 | inactive |
| Elane (elastase, neutrophil expressed) | no change with or without drug | 0 | 0.34 | -0.11 | 0.94 | inactive |
| Itgb1bp1 (integrin beta 1 binding protein 1) | no change with or without drug | 0.45 | 1.18 | -0.22 | 0.98 | inactive |
| Ophn1 (oligophrenin 1) | high cell count with doxorubicin only | 2.36 | 0.51 | 2.14 | 1.15 | inactive |
| Tas2r117 (taste receptor, type 2, member 117) | no change with or without drug | 1.57 | 1.18 | 0.9 | 1.08 | inactive |
| Pck1 (phosphoenolpyruvate carboxykinase 1, cytosolic) | no change with or without drug | 0.22 | -0.51 | 0.67 | 0.96 | inactive |
| Mfge8 (milk fat globule EGF and factor V/VIII domain containing) | no change with or without drug | -0.67 | -0.67 | -0.11 | 0.88 | inactive |
| Sult1d1 (sulfotransferase family 1D, member 1) | no change with or without drug | -0.45 | -0.17 | -0.22 | 0.9 | inactive |
| Or51aa5 (olfactory receptor family 51 subfamily AA member 5) | no change with or without drug | 0.22 | -0.84 | 1.01 | 0.96 | inactive |
| Psme4 (proteasome (prosome, macropain) activator subunit 4) | no change with or without drug | 0 | 1.18 | -0.67 | 0.94 | inactive |
| Or6b3 (olfactory receptor family 6 subfamily B member 3) | no change with or without drug | -1.57 | -1.35 | -0.67 | 0.8 | inactive |
